Assay results published in patent publication US20210139554A1.
No constants are given. Whether binding was seen depends on the method and setting. Some binding calls cover weakened binding; strength is not graded here. Tags and fused reporters may be left off the sequences shown.

By UniProt entry, the sequences of proteins in these tests, tags left out. Residues count along the entry.
UniProt P01589, residues 22-272: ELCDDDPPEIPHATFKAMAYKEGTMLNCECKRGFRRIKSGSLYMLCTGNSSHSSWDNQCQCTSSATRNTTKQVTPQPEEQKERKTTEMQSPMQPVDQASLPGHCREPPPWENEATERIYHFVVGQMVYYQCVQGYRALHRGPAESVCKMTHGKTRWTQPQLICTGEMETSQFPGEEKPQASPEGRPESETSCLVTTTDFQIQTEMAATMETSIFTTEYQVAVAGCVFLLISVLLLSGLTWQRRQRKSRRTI

Target: CD25 (IL-2Rα) on the surface of activated T cells (human) (UniProt P01589)
Test: binding to cell surface CD25

- binding: binds
B1: IL-2 mutein haD5 fused to the amino terminus of Fc, separated by a GGGGS linker (Fc fusion, not shown: a dimerising Fc or GST)
chain: APTSSSTKKTQLQLQNLLLDLQMILNGISNHKNPRLARMLTFKFYMPEKATELKHLQCLEEELKPLEEALRLAPSKNFHLRPRDLISDINVIVLELKGSETTFMCEYADETATIVEFLNRWITFSQSIISTLTGGGGS
